Assay: in vitro
Conditions: human, Caco-2

- Papp A→B: 32.2 ×10⁻⁶ cm/s
SMILES: CC(C)NCC(O)COc1cccc2ccccc12 (stereo unspecified) [PROPRANOLOL]
